Measured values as given in PMC11161950.

The chains behind the UniProt entries cited, without tags or fusion partners.
UniProt O00425: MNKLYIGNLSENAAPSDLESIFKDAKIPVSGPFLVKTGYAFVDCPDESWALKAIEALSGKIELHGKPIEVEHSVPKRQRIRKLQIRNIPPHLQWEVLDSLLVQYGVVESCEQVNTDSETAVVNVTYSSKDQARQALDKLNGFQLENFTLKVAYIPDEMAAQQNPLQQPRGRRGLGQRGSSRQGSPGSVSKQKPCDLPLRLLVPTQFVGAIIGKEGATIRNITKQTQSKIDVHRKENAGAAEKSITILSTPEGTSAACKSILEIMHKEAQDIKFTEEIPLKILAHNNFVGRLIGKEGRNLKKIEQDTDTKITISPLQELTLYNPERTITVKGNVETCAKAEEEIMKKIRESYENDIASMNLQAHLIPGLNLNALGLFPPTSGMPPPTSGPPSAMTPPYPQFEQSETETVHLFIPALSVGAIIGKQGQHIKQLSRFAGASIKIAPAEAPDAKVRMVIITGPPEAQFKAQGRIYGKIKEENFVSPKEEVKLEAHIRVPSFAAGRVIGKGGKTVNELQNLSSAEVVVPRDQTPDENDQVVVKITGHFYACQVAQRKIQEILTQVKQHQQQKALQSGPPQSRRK
UniProt Q93009: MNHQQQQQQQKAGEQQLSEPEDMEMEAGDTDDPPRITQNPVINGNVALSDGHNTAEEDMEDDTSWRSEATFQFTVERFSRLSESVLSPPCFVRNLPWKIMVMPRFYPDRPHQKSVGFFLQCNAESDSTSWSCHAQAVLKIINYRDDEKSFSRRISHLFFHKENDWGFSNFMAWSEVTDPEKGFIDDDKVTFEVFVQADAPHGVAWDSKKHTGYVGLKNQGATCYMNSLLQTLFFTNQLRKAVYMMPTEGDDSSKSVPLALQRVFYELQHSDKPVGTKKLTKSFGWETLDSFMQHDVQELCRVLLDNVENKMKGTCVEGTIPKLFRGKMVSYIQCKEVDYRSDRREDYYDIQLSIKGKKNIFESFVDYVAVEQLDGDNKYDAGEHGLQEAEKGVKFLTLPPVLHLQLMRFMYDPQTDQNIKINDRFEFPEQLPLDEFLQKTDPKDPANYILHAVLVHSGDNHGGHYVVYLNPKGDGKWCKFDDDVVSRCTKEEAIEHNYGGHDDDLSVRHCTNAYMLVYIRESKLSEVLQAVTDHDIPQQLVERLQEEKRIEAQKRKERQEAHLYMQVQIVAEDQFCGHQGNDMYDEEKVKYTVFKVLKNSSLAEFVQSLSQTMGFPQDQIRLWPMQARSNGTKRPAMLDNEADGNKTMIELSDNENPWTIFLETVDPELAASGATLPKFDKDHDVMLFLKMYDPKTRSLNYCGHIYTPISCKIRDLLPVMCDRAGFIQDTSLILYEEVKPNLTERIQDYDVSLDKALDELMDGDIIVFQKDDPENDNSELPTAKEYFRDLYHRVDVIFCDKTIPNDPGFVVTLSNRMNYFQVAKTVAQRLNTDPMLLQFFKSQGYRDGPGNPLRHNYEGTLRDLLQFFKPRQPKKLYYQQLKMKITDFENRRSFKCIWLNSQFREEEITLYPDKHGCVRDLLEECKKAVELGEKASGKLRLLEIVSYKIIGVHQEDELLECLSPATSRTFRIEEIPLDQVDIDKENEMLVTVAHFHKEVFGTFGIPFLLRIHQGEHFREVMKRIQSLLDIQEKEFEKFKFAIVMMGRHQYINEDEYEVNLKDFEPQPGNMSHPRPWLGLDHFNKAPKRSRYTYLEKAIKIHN

Molecular target: IGF2BP3 (human (endogenous in breast cancer cells)) (UniProt O00425)
Experiment: affinity purification with mass spectrometry; co-IP of IGF2BP3 from breast cancer cells followed by mass spectrometry; hits intersected with the RNA pull-down using circSIPA1L3 probes

With “ubiquitin specific peptidase 7 (USP7) (from UniProt Q93009 1-1102) (enzyme)” the binding was “binds”.

No constants are given. Whether binding was seen depends on the method and setting. Binding seen in cells or lysates may run through a third protein. These calls come from enrichment with a bait or labelling near it, and not all partners need be listed.
